The supplement of paper PMC6445147
This is a noisy data set.

B1: human tRNA-Pro; a variant is named by its letters at N, in order (parent)
chain: GGCTCGTTGGTCTAGNGGTATGATTCTCGCTTAGGGTGCGAGAGGTCCCGGGTTCNNATCCCGGACGAGCCC

How the values were obtained:
[1] = variants of: B1; assay: tRNA Pol-III promoter activity, log2 (circRNA frequency / plasmid DNA frequency) (log2 ratio); higher = stronger promoter activity; settings: HEK293T; construct: no Pol-II promoter ((-)CMV library)
[2] = variants of: B1; assay: tRNA 3' processing efficiency (processed reads / all reads, maximum-likelihood estimate) (fraction); higher = more efficient 3' processing; settings: HEK293T; construct: no Pol-II promoter ((-)CMV library)

Row | Variant | tRNA Pol-III promoter activity (log2) [1] | tRNA 3' processing efficiency [2]
1 | GGCTCGTTGGTCTACCGGTATGATTCTCGCTTAGGGTGCGAGAGGTCCCGGGTTTTAATCCCGGACGAGCCC [CTA G15C C55T] | 5.93 | 0.25
2 | GGCTCGTTGGTCTAATGGTATGATTCTCGCTTAGGGTGCGAGAGGTCCCGGGTTCTATACCCGGACGAGCCC [TTA G15A A58T T59A] | 7.93 | 0.13
3 | GGCTCGTTGGTCTAAGGGTATGATTCTCGCTTAGGGTGCGAGAGGTCCCGGGTTCTATTCCCGGACGAGCCC [GTA G15A A58T] | 3.94 | 0.38
4 | GGCTCGTTGGTCTAGAAGTCTGATTCTCGCTTAGGGTGCGAGAGGTCCCGGGTTCTAATCCCGGACGAGCCC [ATA G17A A20C] | 3.71 | 0.25
5 | GGCTCGTTGGTCTAGGAGTATGATTCTCGCTTAGGGTGCGAGAGGTCCCGGGATCTAGTCCCGGACGAGCCC [GTA G17A T53A A58G] | 4.93 | 0.8
6 | GGCTCGTTGGTCTAGGAGTATGATTCTCGCTTAGGGTGCGAGAGGTCCCGGGTTCTAATCCCGGACGAGCCC [GTA G17A] | 0.0226 | 0.22
7 | GGCTCGTTGGTCTACGGGTATGATTCTCGCTTAGGGTGCGAGAGGTCCCGGGTTCTAGTCCCGGACGAGCCC [GTA G15C A58G] | 2.8 | 0.17
8 | GGCTCGTTGGTCTACGGGTATGATTCTCGCTTAGGGTGCGAGAGGTCCCGGGTTCTATTCCCGGACGAGCCC [GTA G15C A58T] | 2.9 | 0.22
9 | GGCTCGTTGGTCTAGGAGGATGATTCTCGCTTAGGGTGCGAGAGGTCCCGGGTTCTATTCCCGGACGAGCCC [GTA G17A T19G A58T] | 5.25 | 0.2
10 | GGCTCGTTGGTCTATGGGTTTGATTCTCGCTTAGGGTGCGAGAGGTCCCGGGTTCTAATCCCGGACGAGCCC [GTA G15T A20T] | 1.93 | 0.25
11 | GGCTCGTTGGTCTAAGGGTATGATTCTCGCTTAGGGTGCGAGAGGTCCCGGGTTCTAAGCCCGGACGAGCCC [GTA G15A T59G] | 4.14 | 0.23
12 | GGCTCGTTGGTCTAGGAGTTTGATTCTCGCTTAGGGTGCGAGAGGTCCCGGGTTCTACTCCCGGACGAGCCC [GTA G17A A20T A58C] | 5.84 | 0.29
13 | GGCTCGTTGGTCTAAGGGTATGATTCTCGCTTAGGGTGCGAGAGGTCCCGGGATCTAATCCCGGACGAGCCC [GTA G15A T53A] | 3.77 | 0.38
14 | GGCTCGTTGGTCTATGGCCATGATTCTCGCTTAGGGTGCGAGAGGTCCCGGGTTCTATTCCCGGACGAGCCC [GTA G15T G18C T19C A58T] | 4.03 | 0.33
15 | GGCTCGTTGGTCTAACGGTATGATTCTCGCTTAGGGTGCGAGAGGTCCCGGGTTCTATTCCCGGACGAGCCC [CTA G15A A58T] | 6.94 | 0.13
16 | GGCTCGTTGGTCTAATGGTATGATTCTCGCTTAGGGTGCGAGAGGTCCCGGGTTCTATTCCCGGACGAGCCC [TTA G15A A58T] | 9.42 | 0.04
17 | GGCTCGTTGGTCTAGGAGTATGATTCTCGCTTAGGGTGCGAGAGGTCCCGGGTTCTAGTCCCGGACGAGCCC [GTA G17A A58G] | 2.41 | 0.43
18 | GGCTCGTTGGTCTAGGAGTATGATTCTCGCTTAGGGTGCGAGAGGTCCCGGGTTCTATTCCCGGACGAGCCC [GTA G17A A58T] | 2.17 | 0.26
19 | GGCTCGTTGGTCTATGGGTATGATTCTCGCTTAGGGTGCGAGAGGTCCCGGGGTCTAATCCCGGACGAGCCC [GTA G15T T53G] | 3.93 | 0.25

Row | Variant | tRNA Pol-III promoter activity (log2) [1] | tRNA 3' processing efficiency [2]
20 | GGCTCGTTGGTCTAAGGATATGATTCTCGCTTAGGGTGCGAGAGGTCCCGGGTTCTATTCCCGGACGAGCCC [GTA G15A G18A A58T] | 5.39 | 0.18
21 | GGCTCGTTGGTCTACGCGTATGATTCTCGCTTAGGGTGCGAGAGGTCCCGGGTTCTAATCCCGGACGAGCCC [GTA G15C G17C] | 4.91 | 0.15
22 | GGCTCGTTGGTCTACGTGTATGATTCTCGCTTAGGGTGCGAGAGGTCCCGGGTTCTAATCCCGGACGAGCCC [GTA G15C G17T] | 3.36 | 0.33
23 | GGCTCGTTGGTCTACGGGTATGATTCTCGCTTAGGGTGCGAGAGGTCCCGGGTTCTAAACCCGGACGAGCCC [GTA G15C T59A] | 6.73 | 0.23
24 | GGCTCGTTGGTCTATAGGTATGATTCTCGCTTAGGGTGCGAGAGGTCCCGGGTTCTAGTCCCGGACGAGCCC [ATA G15T A58G] | 4.36 | 0.25
25 | GGCTCGTTGGTCTATCGGTATGATTCTCGCTTAGGGTGCGAGAGGTCCCGGGTTCTAATCCCGGACGAGCCC [CTA G15T] | 3.61 | 0.13
26 | GGCTCGTTGGTCTAAGGGTATGATTCTCGCTTAGGGTGCGAGAGGTCCCGGGTACTAATCCCGGACGAGCCC [GTA G15A T54A] | 5.93 | 0.5
27 | GGCTCGTTGGTCTATGAGTATGATTCTCGCTTAGGGTGCGAGAGGTCCCGGGTTCTACTCCCGGACGAGCCC [GTA G15T G17A A58C] | 4.15 | 0.43
28 | GGCTCGTTGGTCTATGGATATGATTCTCGCTTAGGGTGCGAGAGGTCCCGGGTTCTATTCCCGGACGAGCCC [GTA G15T G18A A58T] | 5.74 | 0.57
29 | GGCTCGTTGGTCTATGGTTATGATTCTCGCTTAGGGTGCGAGAGGTCCCGGGTTCTAATCCCGGACGAGCCC [GTA G15T G18T] | 4.45 | 0.5
30 | GGCTCGTTGGTCTAACGGTATGATTCTCGCTTAGGGTGCGAGAGGTCCCGGGTTCTAAACCCGGACGAGCCC [CTA G15A T59A] | 4.36 | 0.25
31 | GGCTCGTTGGTCTATGGGTATGATTCTCGCTTAGGGTGCGAGAGGTCCCGGGTTCTAGTCCCGGACGAGCCC [GTA G15T A58G] | 3.05 | 0.43
32 | GGCTCGTTGGTCTAAGGGAATGATTCTCGCTTAGGGTGCGAGAGGTCCCGGGTTCTAATCCCGGACGAGCCC [GTA G15A T19A] | 3.61 | 0.25
33 | GGCTCGTTGGTCTATTGGTATGATTCTCGCTTAGGGTGCGAGAGGTCCCGGGTTCTAATCCCGGACGAGCCC [TTA G15T] | 5.88 | 0.57
34 | GGCTCGTTGGTCTACGTGTTTGATTCTCGCTTAGGGTGCGAGAGGTCCCGGGTTCTAATCCCGGACGAGCCC [GTA G15C G17T A20T] | 6.51 | 0.17
35 | GGCTCGTTGGTCTAATGGGATGATTCTCGCTTAGGGTGCGAGAGGTCCCGGGTTCTAATCCCGGACGAGCCC [TTA G15A T19G] | 5.25 | 0.4
36 | GGCTCGTTGGTCTAGGACTATGATTCTCGCTTAGGGTGCGAGAGGTCCCGGGTTCTAATCCCGGACGAGCCC [GTA G17A G18C] | 1.66 | 0.5
37 | GGCTCGTTGGTCTATGGGTATGATTCTCGCTTAGGGTGCGAGAGGTCCCGGGTTCTAATCCCGGACGAGCCC [GTA G15T] | -0.23 | 0.36
38 | GGCTCGTTGGTCTACGGGTATGATTCTCGCTTAGGGTGCGAGAGGTCCCGGGTTCTAATCCCGGACGAGCCC [GTA G15C] | 1.34 | 0.55

Quoted from the listing:
GGCTCGTTGGTCTAGGAGTATGATTCTCGCTTAGGGTGCGAGAGGTCCCGGGATCTAGTCCCGGACGAGCCC [GTA G17A T53A A58G] | tRNA 3' processing efficiency [2]: 0.8
GGCTCGTTGGTCTAATGGGATGATTCTCGCTTAGGGTGCGAGAGGTCCCGGGTTCTAATCCCGGACGAGCCC [TTA G15A T19G] | tRNA Pol-III promoter activity (log2) [1]: 5.25
